This is one part of the list. Residues, ends and D or L forms follow the SMILES beside them. *: point of attachment. Cbz = O=C(OCc1ccccc1)*
Columns and labels:
Experiment in all cases: log2 fold change, soluble protein after heating vs DMSO (PISA); higher = thermal stabilisation; K562 cells, 10 uM, 30 min; active = over 0.2 and 3.5 SD of the protein, either way, in both replicates (recomputed)
IRAK-1-4 Inhibitor I = compound: C1COCCN1CCN2C3=CC=CC=C3N=C2NC(=O)C4=CC(=CC=C4)[N+](=O)[O-] [IRAK-1-4 Inhibitor I]
Procedure, shortened: (§1)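 Quantification of soluble protein used TMTpro 16plex LC-MS/MS, with channel sums equalised. Samples were the supernatant after 21,000xg for 90 min of pooled aliquots from K562 cells (2×10^6 cells/mL) treated with 10 μM compound for 30 min, heated for 3 min over 48°C-58°C, and extracted in PBS with 0.5% NP-40 at 4°C. Values, from duplicates, describe thermal stability against control samples on a log2 fold-change scale.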

By UniProt entry, the sequences of proteins in these tests, tags left out. Where a name states a change or a piece, a line headed by the entry shows the natural chain unless it says otherwise.
UniProt P54577: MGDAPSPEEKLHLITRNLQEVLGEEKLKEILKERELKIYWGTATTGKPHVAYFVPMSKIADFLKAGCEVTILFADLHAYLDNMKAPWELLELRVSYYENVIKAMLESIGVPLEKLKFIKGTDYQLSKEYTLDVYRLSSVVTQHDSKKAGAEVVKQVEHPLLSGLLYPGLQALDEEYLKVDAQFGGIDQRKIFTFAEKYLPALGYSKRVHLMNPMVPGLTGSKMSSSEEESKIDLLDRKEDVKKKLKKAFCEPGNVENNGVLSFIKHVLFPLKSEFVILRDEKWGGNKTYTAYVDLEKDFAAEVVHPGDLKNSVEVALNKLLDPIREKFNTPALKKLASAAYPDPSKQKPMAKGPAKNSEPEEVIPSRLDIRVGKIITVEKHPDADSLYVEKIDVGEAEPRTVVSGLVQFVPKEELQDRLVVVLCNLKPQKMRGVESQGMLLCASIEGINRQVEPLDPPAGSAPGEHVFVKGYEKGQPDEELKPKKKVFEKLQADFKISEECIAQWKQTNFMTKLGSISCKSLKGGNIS
UniProt P16989, whole entry, looked up: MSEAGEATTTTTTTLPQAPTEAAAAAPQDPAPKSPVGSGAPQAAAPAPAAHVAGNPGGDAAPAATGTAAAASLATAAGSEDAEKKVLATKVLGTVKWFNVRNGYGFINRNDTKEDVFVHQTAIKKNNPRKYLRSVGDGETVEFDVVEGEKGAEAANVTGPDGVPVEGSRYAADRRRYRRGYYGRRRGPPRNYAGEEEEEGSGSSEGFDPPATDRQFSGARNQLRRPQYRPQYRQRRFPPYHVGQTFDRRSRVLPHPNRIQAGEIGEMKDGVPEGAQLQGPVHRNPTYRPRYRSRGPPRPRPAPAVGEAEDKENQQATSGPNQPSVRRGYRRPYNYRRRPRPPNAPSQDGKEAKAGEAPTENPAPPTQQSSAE
UniProt Q9GZM5: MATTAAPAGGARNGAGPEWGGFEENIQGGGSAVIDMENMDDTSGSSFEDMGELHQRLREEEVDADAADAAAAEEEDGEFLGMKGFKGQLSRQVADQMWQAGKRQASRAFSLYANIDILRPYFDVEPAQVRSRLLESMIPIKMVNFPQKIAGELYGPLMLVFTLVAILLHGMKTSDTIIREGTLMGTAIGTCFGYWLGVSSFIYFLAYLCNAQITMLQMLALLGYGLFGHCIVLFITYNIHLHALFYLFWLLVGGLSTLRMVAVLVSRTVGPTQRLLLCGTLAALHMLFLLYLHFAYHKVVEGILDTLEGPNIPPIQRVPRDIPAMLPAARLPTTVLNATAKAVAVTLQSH
UniProt Q8WU90: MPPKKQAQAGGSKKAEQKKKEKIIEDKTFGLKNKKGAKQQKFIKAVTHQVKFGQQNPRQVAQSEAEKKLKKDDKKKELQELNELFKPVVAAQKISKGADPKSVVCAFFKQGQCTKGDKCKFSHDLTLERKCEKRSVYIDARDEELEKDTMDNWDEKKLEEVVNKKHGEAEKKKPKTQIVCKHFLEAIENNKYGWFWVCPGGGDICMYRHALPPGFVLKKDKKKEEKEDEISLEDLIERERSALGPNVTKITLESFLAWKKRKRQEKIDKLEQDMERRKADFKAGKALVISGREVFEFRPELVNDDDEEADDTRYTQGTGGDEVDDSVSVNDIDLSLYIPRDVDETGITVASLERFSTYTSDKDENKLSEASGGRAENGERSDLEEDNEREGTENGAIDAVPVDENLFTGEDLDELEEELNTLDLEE
UniProt O43542: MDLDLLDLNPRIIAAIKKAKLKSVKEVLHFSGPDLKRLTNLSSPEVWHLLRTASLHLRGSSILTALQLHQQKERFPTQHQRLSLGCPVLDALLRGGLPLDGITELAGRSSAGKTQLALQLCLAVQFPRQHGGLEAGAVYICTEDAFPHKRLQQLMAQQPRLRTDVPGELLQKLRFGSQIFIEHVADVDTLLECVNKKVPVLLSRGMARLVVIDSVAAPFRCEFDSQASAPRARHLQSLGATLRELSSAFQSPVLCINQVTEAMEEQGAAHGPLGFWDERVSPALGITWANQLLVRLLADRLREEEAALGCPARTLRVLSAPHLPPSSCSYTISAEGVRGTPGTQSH
UniProt O95365: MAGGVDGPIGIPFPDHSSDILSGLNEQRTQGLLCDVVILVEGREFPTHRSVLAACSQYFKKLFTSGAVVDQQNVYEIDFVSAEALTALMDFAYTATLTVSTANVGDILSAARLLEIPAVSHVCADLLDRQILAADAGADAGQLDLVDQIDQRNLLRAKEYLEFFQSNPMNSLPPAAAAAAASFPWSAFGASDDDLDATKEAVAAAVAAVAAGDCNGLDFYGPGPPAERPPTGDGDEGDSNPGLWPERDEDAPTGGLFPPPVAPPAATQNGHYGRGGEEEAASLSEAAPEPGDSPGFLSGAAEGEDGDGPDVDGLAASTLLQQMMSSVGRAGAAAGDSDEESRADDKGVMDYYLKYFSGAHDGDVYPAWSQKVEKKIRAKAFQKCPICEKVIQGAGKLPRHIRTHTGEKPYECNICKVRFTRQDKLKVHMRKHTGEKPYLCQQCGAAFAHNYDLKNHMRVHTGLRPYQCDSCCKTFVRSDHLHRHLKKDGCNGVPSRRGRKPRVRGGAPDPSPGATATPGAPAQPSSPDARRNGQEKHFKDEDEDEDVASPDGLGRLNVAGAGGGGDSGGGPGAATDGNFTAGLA
UniProt O15498: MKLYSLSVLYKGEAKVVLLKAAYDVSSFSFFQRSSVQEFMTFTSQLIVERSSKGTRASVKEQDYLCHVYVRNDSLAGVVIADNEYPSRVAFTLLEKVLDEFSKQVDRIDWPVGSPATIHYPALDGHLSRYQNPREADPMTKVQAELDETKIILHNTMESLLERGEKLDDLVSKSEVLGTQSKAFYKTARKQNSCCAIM
UniProt Q9NUE0: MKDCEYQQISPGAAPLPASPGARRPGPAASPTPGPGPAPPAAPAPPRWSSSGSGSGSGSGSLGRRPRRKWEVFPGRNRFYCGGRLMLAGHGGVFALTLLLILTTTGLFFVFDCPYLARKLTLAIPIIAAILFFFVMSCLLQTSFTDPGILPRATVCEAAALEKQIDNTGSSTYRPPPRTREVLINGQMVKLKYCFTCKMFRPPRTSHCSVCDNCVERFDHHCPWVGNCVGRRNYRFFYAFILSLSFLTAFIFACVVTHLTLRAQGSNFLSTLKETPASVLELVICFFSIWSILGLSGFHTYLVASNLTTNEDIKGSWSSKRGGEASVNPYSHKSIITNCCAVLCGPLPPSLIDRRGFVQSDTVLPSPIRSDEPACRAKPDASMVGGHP
UniProt Q6PJT7: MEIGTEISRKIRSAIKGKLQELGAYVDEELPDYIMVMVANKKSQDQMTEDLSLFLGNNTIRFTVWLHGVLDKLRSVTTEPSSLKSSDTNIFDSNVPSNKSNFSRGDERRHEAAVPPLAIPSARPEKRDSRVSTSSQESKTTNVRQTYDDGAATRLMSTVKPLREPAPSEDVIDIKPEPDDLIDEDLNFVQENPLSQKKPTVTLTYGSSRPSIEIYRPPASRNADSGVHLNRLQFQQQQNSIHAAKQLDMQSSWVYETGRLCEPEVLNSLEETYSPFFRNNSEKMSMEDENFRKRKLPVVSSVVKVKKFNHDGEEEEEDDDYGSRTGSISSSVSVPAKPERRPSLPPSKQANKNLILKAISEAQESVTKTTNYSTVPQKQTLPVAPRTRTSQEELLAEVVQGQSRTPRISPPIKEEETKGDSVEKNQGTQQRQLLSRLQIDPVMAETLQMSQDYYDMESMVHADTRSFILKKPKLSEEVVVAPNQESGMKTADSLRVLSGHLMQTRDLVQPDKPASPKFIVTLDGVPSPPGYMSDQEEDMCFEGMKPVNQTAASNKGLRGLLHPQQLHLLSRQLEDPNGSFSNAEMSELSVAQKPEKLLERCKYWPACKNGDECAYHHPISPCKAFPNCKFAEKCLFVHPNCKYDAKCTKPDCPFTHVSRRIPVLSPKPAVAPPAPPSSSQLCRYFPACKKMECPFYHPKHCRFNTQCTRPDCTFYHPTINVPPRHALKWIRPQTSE
UniProt Q9UPT8: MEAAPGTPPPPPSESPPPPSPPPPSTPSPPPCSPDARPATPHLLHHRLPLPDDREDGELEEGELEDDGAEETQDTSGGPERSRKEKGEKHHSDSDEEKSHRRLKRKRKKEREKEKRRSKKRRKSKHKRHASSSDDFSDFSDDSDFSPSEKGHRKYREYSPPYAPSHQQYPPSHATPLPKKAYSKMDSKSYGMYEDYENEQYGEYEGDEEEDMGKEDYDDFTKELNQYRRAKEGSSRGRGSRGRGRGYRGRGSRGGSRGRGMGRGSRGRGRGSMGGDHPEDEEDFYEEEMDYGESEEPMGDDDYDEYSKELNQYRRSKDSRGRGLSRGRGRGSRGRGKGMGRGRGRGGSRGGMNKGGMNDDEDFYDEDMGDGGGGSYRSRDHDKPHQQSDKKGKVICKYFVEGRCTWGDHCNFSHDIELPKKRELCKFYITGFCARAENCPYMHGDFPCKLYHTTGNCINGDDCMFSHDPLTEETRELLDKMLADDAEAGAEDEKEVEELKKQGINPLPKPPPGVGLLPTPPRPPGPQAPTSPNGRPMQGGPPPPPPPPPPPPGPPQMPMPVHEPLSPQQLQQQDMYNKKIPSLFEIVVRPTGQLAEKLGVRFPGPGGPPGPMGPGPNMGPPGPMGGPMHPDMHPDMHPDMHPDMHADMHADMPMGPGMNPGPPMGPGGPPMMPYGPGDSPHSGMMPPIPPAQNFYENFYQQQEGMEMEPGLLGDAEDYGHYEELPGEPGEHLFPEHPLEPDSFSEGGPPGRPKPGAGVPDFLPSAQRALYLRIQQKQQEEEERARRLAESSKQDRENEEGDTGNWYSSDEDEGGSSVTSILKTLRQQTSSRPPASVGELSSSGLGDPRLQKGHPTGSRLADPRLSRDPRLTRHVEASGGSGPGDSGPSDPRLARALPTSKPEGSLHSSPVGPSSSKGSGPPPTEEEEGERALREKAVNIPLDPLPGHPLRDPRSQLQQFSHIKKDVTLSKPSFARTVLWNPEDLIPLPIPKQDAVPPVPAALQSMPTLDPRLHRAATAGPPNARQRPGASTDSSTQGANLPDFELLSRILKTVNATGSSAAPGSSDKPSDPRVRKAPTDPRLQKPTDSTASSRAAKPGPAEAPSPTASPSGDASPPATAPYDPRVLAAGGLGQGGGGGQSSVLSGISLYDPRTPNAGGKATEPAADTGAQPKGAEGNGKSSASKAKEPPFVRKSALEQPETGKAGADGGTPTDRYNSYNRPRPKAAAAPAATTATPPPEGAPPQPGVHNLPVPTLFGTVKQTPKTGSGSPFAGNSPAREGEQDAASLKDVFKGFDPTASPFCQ
UniProt P62699: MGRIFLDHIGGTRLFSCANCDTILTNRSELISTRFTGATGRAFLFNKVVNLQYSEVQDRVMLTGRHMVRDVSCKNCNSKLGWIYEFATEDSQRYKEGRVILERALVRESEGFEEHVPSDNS
UniProt P17028: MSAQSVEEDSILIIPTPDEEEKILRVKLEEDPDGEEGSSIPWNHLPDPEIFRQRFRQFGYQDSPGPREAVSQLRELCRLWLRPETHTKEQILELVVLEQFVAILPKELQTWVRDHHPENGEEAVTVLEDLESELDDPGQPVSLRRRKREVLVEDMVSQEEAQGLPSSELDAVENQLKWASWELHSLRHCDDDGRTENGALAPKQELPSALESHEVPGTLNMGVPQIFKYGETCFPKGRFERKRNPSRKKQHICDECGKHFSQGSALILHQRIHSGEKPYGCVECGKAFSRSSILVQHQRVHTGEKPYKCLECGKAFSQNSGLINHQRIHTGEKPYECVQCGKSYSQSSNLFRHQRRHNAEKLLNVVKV
UniProt Q9UQR1: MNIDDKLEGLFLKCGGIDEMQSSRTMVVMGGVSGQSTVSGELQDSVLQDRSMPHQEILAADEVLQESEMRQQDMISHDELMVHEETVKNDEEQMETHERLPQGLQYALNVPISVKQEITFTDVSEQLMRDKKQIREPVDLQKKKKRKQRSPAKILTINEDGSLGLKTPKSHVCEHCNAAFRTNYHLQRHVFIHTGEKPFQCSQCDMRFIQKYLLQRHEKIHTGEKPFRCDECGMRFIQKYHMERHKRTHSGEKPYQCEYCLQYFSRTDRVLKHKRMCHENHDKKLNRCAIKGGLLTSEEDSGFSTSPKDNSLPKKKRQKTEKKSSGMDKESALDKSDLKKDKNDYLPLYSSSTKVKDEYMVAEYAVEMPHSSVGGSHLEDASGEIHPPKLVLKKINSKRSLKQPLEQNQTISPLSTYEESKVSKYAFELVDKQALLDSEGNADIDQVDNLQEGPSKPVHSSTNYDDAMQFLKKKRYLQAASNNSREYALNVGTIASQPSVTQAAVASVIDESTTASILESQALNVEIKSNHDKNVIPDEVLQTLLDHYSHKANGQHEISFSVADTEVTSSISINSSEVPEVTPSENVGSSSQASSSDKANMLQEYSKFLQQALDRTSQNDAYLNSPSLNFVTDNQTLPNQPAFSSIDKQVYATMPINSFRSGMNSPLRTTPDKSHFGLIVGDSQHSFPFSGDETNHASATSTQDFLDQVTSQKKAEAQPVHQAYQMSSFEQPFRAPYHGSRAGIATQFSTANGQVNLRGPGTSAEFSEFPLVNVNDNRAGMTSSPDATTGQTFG

ibrutinib = compound: C=CC(=O)N1CCC[C@@H](n2nc(-c3ccc(Oc4ccccc4)cc3)c3c(N)ncnc32)C1 [ibrutinib]
Procedure, shortened: as §1

[1] = compound: CC(=O)c1cnc2ccc(-c3cc(Cl)c(O)c(Cl)c3)nc2c1N[C@H]1CC[C@H](CN(C)C)CC1
Procedure, shortened: as §1

ralimetinib = compound: CC(C)(C)Cn1c(N)nc2ccc(-c3[nH]c(C(C)(C)C)nc3-c3ccc(F)cc3)nc21 [ralimetinib]
Procedure, shortened: as §1

[2] = compound: CC(C)(O)CC(=O)NCCn1ccc2ncnc(Nc3ccc(Oc4cccc(C(F)(F)F)c4)c(Cl)c3)c21
Procedure, shortened: as §1

[3] = compound: CC(C)C1=C2N=C(C=C(N2N=C1)NCC3=CC=CC=C3)NCCCCCCN
Procedure, shortened: as §1

[4] = compound: CC(C)C[C@@H](C=O)NC(=O)[C@H](CC(C)C)NC(=O)[C@H](CC(C)C)NC(=O)OCc1ccccc1
Procedure, shortened: as §1

pinometostat = compound: CC(C)N(C[C@H]1O[C@@H](n2cnc3c(N)ncnc32)[C@H](O)[C@@H]1O)[C@H]1C[C@@H](CCc2nc3cc(C(C)(C)C)ccc3[nH]2)C1 [pinometostat]
Procedure, shortened: as §1

[5] = compound: CC1=C(C(CC(=O)N1)C2=CC=C(C=C2)C(F)(F)F)C(=O)NC3=C(C=C4C(=C3)C=NN4)F
Procedure, shortened: as §1

[6] = compound: CC1=C(C2=C(C=C1)C(=O)C3=CC=CC=C3N2CCCN)C
Procedure, shortened: as §1

Measured: log2 fold change

YEATS4 (UniProt O95619)
inactive: IRAK-1-4 Inhibitor I -0.017 | ibrutinib -0.008 | [1] -0.016 | ralimetinib -0.029 | [2] 0.075 | [3] 0.153 | [4] 0.019 | pinometostat -0.004 | [5] -0.095 | [6] -0.029

YME1L1 (UniProt Q96TA2)
inactive: IRAK-1-4 Inhibitor I -0.018 | ibrutinib 0.013 | [1] -0.009 | ralimetinib -0.011 | [2] 0.008 | [3] -0.069 | [4] 0.041 | pinometostat 0.008 | [5] 0.025 | [6] 0.051

YJU2 (UniProt Q9BW85)
inactive: IRAK-1-4 Inhibitor I 0.052 | ibrutinib -0.007 | [1] 0.023 | ralimetinib -0.092 | [2] -0.056 | [3] 0.032 | [4] 0.016 | pinometostat 0.003 | [5] 0.011 | [6] 0.028

YARS (UniProt P54577)
inactive: IRAK-1-4 Inhibitor I -0.063 | ibrutinib -0.035 | [1] 0.004 | ralimetinib 0.1 | [2] -0.066 | [3] -0.178 | [4] 0.024 | pinometostat 0.106 | [5] -0.01 | [6] 0.048

YBX3 (UniProt P16989)
inactive: IRAK-1-4 Inhibitor I -0.111 | ibrutinib 0.099 | [1] 0.149 | ralimetinib 0.093 | [2] 0.229 | [3] 0.102 | [4] 0.109 | pinometostat 0.232 | [5] 0.025 | [6] -0.501

XRN2 (UniProt Q9H0D6)
inactive: IRAK-1-4 Inhibitor I -0.052 | ibrutinib 0.055 | [1] -0.01 | ralimetinib 0.028 | [2] 0.023 | [3] -0.02 | [4] 0.04 | pinometostat 0.006 | [5] 0.06 | [6] 0.128

YWHAH (UniProt Q04917)
inactive: IRAK-1-4 Inhibitor I 0.113 | ibrutinib 0.001 | [1] 0.003 | ralimetinib 0.065 | [2] 0.028 | [3] 0.009 | [4] -0.064 | pinometostat -0.033 | [5] 0.01 | [6] -0.084

YIPF3 (UniProt Q9GZM5)
inactive: IRAK-1-4 Inhibitor I -0.003 | ibrutinib 0.008 | [1] -0.085 | ralimetinib -0.097 | [2] 0.031 | [3] -0.011 | [4] -0.027 | pinometostat -0.11 | [5] 0.006 | [6] 0.111

ZC3H15 (UniProt Q8WU90)
inactive: IRAK-1-4 Inhibitor I -0.016 | ibrutinib 0.025 | [1] 0.052 | ralimetinib 0.029 | [2] 0.089 | [3] 0.084 | [4] 0.05 | pinometostat 0.099 | [5] -0.018 | [6] 0.116

2 consecutive records from above, quoted:
XRN2 (UniProt Q9H0D6)
inactive: IRAK-1-4 Inhibitor I -0.052 | ibrutinib 0.055 | [1] -0.01 | ralimetinib 0.028 | [2] 0.023 | [3] -0.02 | [4] 0.04 | pinometostat 0.006 | [5] 0.06 | [6] 0.128

YWHAH (UniProt Q04917)
inactive: IRAK-1-4 Inhibitor I 0.113 | ibrutinib 0.001 | [1] 0.003 | ralimetinib 0.065 | [2] 0.028 | [3] 0.009 | [4] -0.064 | pinometostat -0.033 | [5] 0.01 | [6] -0.084

More results.

YARS2 (UniProt Q9Y2Z4)
inactive: IRAK-1-4 Inhibitor I -0.075 | ibrutinib -0.048 | [1] -0.062 | ralimetinib 0.015 | [2] -0.236 | [3] -0.057 | [4] 0.075 | pinometostat -0.049 | [5] -0.175 | [6] 0.135

XPO4 (UniProt Q9C0E2)
inactive: IRAK-1-4 Inhibitor I 0.017 | ibrutinib -0.03 | [1] 0.065 | ralimetinib -0.035 | [2] -0.07 | [3] -0.049 | [4] -0.037 | pinometostat -0.018 | [5] -0.003 | [6] -0.08

ZFYVE1 (UniProt Q9HBF4)
inactive: IRAK-1-4 Inhibitor I -0.005 | ibrutinib -0.035 | [1] -0.109 | ralimetinib -0.014 | [2] -0.236 | [3] -0.05 | [4] 0.087 | pinometostat -0.045 | [5] -0.031 | [6] 0

XRCC3 (UniProt O43542)
inactive: IRAK-1-4 Inhibitor I -0.014 | ibrutinib 0.023 | [1] 0.056 | ralimetinib -0.021 | [2] -0.121 | [3] -0.031 | [4] 0.002 | pinometostat 0.029 | [5] -0.033 | [6] 0.036

ZFAND2B (UniProt Q8WV99)
inactive: IRAK-1-4 Inhibitor I 0.037 | ibrutinib 0.047 | [1] -0.006 | ralimetinib -0.063 | [2] -0.063 | [3] 0.089 | [4] 0.014 | pinometostat -0.032 | [5] -0.044 | [6] -0.011

ZBTB7A (UniProt O95365)
inactive: IRAK-1-4 Inhibitor I -0.144 | ibrutinib 0.087 | [1] -0.132 | ralimetinib 0.138 | [2] 0.199 | [3] 0.132 | [4] 0.023 | pinometostat -0.075 | [5] -0.096 | [6] -0.23

YKT6 (UniProt O15498)
inactive: IRAK-1-4 Inhibitor I 0.052 | ibrutinib -0.002 | [1] 0.004 | ralimetinib -0.06 | [2] 0.014 | [3] 0.04 | [4] -0.023 | pinometostat -0.032 | [5] 0.004 | [6] 0.016

ZDHHC18 (UniProt Q9NUE0)
inactive: IRAK-1-4 Inhibitor I 0.036 | ibrutinib -0.19 | [1] 0.013 | ralimetinib 0.099 | [2] -0.053 | [3] 0.034 | [4] -0.027 | pinometostat -0.003 | [5] -0.017 | [6] 0.062

ZC3H13 (UniProt Q5T200)
inactive: IRAK-1-4 Inhibitor I 0.075 | ibrutinib 0.02 | [1] -0.003 | ralimetinib -0.295 | [2] 0.023 | [3] 0.081 | [4] 0.187 | pinometostat 0.202 | [5] 0.074 | [6] -0.025

ZC3H14 (UniProt Q6PJT7)
inactive: IRAK-1-4 Inhibitor I -0.007 | ibrutinib 0 | [1] -0.079 | ralimetinib 0.042 | [2] 0.027 | [3] 0.136 | [4] 0.067 | pinometostat 0.086 | [5] 0.057 | [6] 0.178

ZFYVE16 (UniProt Q7Z3T8)
inactive: IRAK-1-4 Inhibitor I 0.101 | ibrutinib 0.014 | [1] -0.034 | ralimetinib -0.011 | [2] -0.01 | [3] -0.051 | [4] 0.006 | pinometostat 0.019 | [5] -0.029 | [6] 0.045

ZC3HAV1 (UniProt Q7Z2W4)
inactive: IRAK-1-4 Inhibitor I -0.116 | ibrutinib 0.059 | [1] -0.101 | ralimetinib 0.185 | [2] 0.084 | [3] -0.067 | [4] 0.11 | pinometostat 0.375 | [5] -0.076 | [6] -0.248

ZMIZ1 (UniProt Q9ULJ6)
inactive: IRAK-1-4 Inhibitor I 0.044 | ibrutinib -0.015 | [1] -0.015 | ralimetinib -0.007 | [2] -0.039 | [3] 0 | [4] 0.003 | pinometostat -0.045 | [5] 0.021 | [6] 0.025

ZC3H4 (UniProt Q9UPT8)
inactive: IRAK-1-4 Inhibitor I -0.089 | ibrutinib 0.024 | [1] 0.059 | ralimetinib 0.099 | [2] 0.106 | [3] 0.041 | [4] 0.071 | pinometostat 0.139 | [5] 0.009 | [6] -0.147

ZFYVE19 (UniProt Q96K21)
inactive: IRAK-1-4 Inhibitor I 0.05 | ibrutinib -0.02 | [1] 0.026 | ralimetinib -0.039 | [2] -0.005 | [3] 0.075 | [4] 0.003 | pinometostat -0.021 | [5] 0.011 | [6] 0.001

XRCC4 (UniProt Q13426)
inactive: IRAK-1-4 Inhibitor I 0.046 | ibrutinib 0.012 | [1] -0.023 | ralimetinib -0.029 | [2] 0.008 | [3] 0.041 | [4] 0.031 | pinometostat -0.029 | [5] -0.005 | [6] -0.016

YPEL5 (UniProt P62699)
inactive: IRAK-1-4 Inhibitor I -0.093 | ibrutinib 0.054 | [1] -0.173 | ralimetinib -0.111 | [2] 0.041 | [3] -0.083 | [4] 0.05 | pinometostat 0.068

YBX3 isoform 2 (UniProt P16989)
inactive: IRAK-1-4 Inhibitor I -0.105 | ibrutinib 0.1 | [1] 0.188 | ralimetinib 0.053 | [2] 0.108 | [3] 0.096 | [4] -0.092 | pinometostat 0.153 | [5] 0.011 | [6] -0.649

YWHAG (UniProt P61981)
inactive: IRAK-1-4 Inhibitor I 0.094 | ibrutinib 0.039 | [1] 0.057 | ralimetinib 0.187 | [2] 0.033 | [3] 0.093 | [4] -0.125 | pinometostat -0.038 | [5] 0.011 | [6] -0.031

ZNF24 (UniProt P17028)
inactive: IRAK-1-4 Inhibitor I -0.033 | ibrutinib -0.049 | [1] -0.003 | ralimetinib 0.15 | [2] 0.018 | [3] -0.127 | [4] 0.141 | pinometostat 0.228 | [5] -0.079 | [6] -0.088

ZNF148 (UniProt Q9UQR1)
inactive: IRAK-1-4 Inhibitor I -0.01 | ibrutinib -0.155 | [1] 0.151 | ralimetinib 0.046 | [2] 0.07 | [3] -0.1 | [4] 0.097 | pinometostat -0.029 | [5] -0.084 | [6] 0.281

From the supplement of paper PMC10849652
